According to paper PMC5778034:
These are yes or no findings as the source states them, for the method shown. Binding seen in cells or lysates may run through a third protein. Some entries that bind do so weakly or less than the wild type.

Sequences of proteins named here, by UniProt entry; tags and fusion partners are left off.
UniProt Q9Y5X1: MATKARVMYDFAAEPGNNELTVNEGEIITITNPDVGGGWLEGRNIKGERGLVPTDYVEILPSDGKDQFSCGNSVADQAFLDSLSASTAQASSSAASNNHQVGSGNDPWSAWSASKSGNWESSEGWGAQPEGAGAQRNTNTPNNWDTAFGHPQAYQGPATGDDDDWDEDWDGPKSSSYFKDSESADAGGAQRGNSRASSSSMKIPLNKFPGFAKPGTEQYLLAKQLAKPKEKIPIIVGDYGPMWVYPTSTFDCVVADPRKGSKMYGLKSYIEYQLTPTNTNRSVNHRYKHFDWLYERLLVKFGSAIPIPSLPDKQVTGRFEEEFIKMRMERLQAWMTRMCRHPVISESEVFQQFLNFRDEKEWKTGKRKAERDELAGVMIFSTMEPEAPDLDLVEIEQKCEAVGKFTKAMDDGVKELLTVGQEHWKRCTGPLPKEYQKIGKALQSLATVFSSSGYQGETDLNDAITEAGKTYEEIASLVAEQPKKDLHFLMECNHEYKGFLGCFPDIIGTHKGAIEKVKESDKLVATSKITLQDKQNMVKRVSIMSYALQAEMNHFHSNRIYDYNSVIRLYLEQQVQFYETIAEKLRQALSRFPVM
UniProt O43684: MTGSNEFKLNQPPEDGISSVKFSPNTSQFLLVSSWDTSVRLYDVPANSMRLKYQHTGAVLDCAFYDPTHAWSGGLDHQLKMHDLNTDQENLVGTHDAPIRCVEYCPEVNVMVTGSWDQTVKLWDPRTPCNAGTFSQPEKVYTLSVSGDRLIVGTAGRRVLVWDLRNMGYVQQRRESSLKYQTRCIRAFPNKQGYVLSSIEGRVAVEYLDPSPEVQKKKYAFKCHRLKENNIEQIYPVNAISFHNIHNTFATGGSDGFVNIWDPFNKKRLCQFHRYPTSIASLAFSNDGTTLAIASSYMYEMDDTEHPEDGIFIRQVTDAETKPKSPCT
UniProt P14635: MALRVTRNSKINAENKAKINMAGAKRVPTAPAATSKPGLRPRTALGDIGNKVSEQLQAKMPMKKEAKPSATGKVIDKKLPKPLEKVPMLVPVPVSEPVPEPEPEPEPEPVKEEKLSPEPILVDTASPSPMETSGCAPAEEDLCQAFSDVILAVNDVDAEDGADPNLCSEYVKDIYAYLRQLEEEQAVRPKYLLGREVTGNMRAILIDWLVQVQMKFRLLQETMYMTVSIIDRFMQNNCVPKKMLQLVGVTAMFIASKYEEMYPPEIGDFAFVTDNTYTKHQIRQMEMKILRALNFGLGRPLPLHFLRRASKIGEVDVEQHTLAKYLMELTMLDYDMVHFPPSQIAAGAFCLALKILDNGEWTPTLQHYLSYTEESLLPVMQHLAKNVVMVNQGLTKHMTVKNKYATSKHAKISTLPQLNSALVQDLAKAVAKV
UniProt P06493: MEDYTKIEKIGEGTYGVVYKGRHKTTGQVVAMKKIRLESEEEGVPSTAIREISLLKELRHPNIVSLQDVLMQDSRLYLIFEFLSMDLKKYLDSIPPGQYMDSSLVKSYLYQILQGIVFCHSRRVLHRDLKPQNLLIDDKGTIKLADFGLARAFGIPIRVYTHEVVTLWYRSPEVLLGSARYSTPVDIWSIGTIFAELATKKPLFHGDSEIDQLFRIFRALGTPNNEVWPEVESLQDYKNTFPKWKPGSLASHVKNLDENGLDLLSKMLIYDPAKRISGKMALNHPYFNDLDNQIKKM
UniProt P31749: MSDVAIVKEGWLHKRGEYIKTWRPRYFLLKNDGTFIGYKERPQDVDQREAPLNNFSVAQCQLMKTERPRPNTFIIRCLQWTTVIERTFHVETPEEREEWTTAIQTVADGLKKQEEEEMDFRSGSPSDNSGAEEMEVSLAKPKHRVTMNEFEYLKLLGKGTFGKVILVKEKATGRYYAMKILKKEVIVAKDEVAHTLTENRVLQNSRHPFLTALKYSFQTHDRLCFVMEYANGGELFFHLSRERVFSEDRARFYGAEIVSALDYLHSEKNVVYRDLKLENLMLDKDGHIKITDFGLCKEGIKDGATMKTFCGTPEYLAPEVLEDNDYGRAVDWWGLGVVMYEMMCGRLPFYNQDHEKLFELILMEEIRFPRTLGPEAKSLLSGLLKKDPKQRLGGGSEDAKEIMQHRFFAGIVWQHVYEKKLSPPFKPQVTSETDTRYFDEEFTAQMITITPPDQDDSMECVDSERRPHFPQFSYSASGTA

Key:
[1] = target: SH3PX1 (human (endogenous in HEK293)) (UniProt Q9Y5X1); assay: co-IP; reverse co-IP: antibodies against the partners on Dynabeads protein A, lysate 2 hours at 4 °C, washes with PBST; western blot with anti-Akt1 antibody
[2] = target: BUB3 (human (endogenous in HEK293)) (UniProt O43684); assay: as above
[3] = target: T1, API5 (human (endogenous in HEK293)) (UniProt Q9BZZ5); assay: as above
T1 sequence: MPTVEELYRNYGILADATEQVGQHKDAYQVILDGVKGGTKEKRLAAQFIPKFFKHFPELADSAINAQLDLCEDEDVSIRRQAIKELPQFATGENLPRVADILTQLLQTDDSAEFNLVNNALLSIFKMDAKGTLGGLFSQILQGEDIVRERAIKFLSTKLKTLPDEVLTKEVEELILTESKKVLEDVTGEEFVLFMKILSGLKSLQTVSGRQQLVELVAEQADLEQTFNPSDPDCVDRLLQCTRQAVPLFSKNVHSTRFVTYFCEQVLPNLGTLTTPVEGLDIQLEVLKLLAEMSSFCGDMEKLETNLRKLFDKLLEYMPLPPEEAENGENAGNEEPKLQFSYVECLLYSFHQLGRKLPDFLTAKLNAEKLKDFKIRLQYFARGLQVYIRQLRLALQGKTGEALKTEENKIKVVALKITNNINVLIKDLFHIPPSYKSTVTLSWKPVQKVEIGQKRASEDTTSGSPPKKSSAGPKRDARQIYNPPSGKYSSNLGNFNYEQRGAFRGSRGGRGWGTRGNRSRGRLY

[4] = target: CCNB1 (human (endogenous in HEK293)) (UniProt P14635); assay: as above
[5] = target: CDK1 (human (endogenous in HEK293)) (UniProt P06493); assay: as above
Akt1 (PKBα) (human) = Akt1 (PKBα) (human) (UniProt P31749); assay: co-IP; asynchronous Akt1-expressing HEK293 cells lysed in IP buffer; affinity purification by the SH tag of Akt1; eluates probed by western blot with antibodies against the partners

Akt1 (PKBα) (from UniProt P31749 1-480)
binding [1]: binds
binding [2]: binds
binding [3]: binds
binding [4]: binds
binding [5]: binds

BUB3 (from UniProt O43684 1-328)
binding (Akt1 (PKBα) (human)): binds

CCNB1 (from UniProt P14635 1-433)
binding (Akt1 (PKBα) (human)): binds

SH3PX1 (from UniProt Q9Y5X1 1-595)
binding (Akt1 (PKBα) (human)): binds
